Measurements from PubChem BioAssay AID540276 (National Center for Advancing Translational Sciences (NCATS), 2011).
In all, about 300,000 compounds went through this assay and about 5,400 (1.8%) were called active. Inconclusive means that the source gave no clear call. Such entries were picked first, then a sample of the others. The call rests on the fitted dose curve; tested in HEK293 cells. Potencies beside an inconclusive call are fits to weak or partial responses and may not hold up.

assay: qHTS for inhibitors of binding or entry into cells for Marburg Virus; conditions: Marburg virus pseudotyped entry inhibition, cell reporter; series mostly up to 37.8 µM
Potency means the concentration at half of the fitted maximal effect.

Structure (SMILES)	Potency
Cc1cc(C)n(C(=O)c2ccc(S(=O)(=O)N3CCCC3)cc2)n1	inconclusive: 1 µM [activator, full curve, poor fit]
CCOC(=O)c1ccc(NC(=S)N(CCCN2CCCCC2)Cc2ccco2)cc1	active: 12.6 µM
Cc1ccc(NC(=O)Cn2nc(C(F)(F)F)c3c2CCC3)cc1C	inconclusive: 15.8 µM [inhibitor, partial curve, poor fit]
O=C(c1cc(Cl)ccc1F)N1CCCC(Nc2ccc3c(c2)OCCO3)C1 (configuration not stated)	inactive
CCN(CC)c1ccc(NC2=C(Cl)C(=O)c3ccccc3C2=O)cc1	active: 3.98 µM
CCc1ccc(Nc2ncc3c(n2)CC(C)CC3=O)cc1 (configuration not stated)	inconclusive: 3.55 µM [activator, single point]
C=CCn1c(-c2ccc(S(=O)(=O)N3CCOCC3)cc2)csc1=Nc1ccccc1	inactive
COC(=O)c1cn(C(=O)c2ccco2)c2ccccc12	inconclusive: 3.55 µM [activator, partial curve, poor fit]
CCc1ccccc1NS(=O)(=O)c1ccc2[nH]cc(C(=O)NC3CCCC3)c(=O)c2c1	inconclusive: 15.8 µM [inhibitor, single point]
CCOc1ccc(S(=O)(=O)NCc2ccccn2)cc1NC(=O)c1ccccc1F	inconclusive: 0.562 µM [inhibitor, full curve, poor fit]
O=C(Nc1ccc2sccc2c1)c1cccc(N2C(=O)CCC2=O)c1	inactive
O=C(NNc1c2ccccc2nc2ccccc12)c1ccc(Cl)cc1	inconclusive: 1.12 µM [inhibitor, full curve, poor fit]
COc1ccc(-n2nnnc2SCC(=O)NCCc2ccccc2)cc1	inactive
COc1ccccc1N1CCN(C2CCCCC2NS(=O)(=O)c2ccccc2)CC1 (configuration not stated)	inconclusive: 11.2 µM [inhibitor, single point]
COc1cccc(CNC(=O)COC(=O)CCc2cc(OC)c(OC)c(OC)c2)c1	inactive
COc1cccc(C(C(=O)NC2CCCCC2)N(C(=O)Cc2cccs2)c2ccc(-n3cnnn3)c(OC)c2)c1 (configuration not stated)	inconclusive: 18.3 µM [inhibitor, partial curve]
Cc1ccc(NC(=O)CCCc2ccccc2)nc1	inconclusive: 3.55 µM [activator, full curve, poor fit]
CCOc1ccc(N2C(=O)CN(CC(=O)OC)C2=S)cc1	inactive
CC12CCC(=O)N1C(C(=O)Nc1nnc(SCc3ccccc3F)s1)CS2 (configuration not stated)	inactive
COc1cc(C2NC(=O)NC(C)=C2C(=O)OCc2ccccc2)ccc1O (configuration not stated)	inconclusive: 0.112 µM [inhibitor, full curve, poor fit]
O=C(COc1ccccc1)NCCS(=O)(=O)N1CCN(c2ccccc2)CC1	inactive
COc1ccc(NC(=S)N(CCCN2CCCC2)Cc2cccs2)cc1	inconclusive: 14.6 µM [inhibitor, partial curve, poor fit]
O=C(Nc1cccc(C(F)(F)F)c1)C1CCN(S(=O)(=O)c2cccc3nsnc23)CC1	inconclusive: 35.5 µM [inhibitor, single point]

Structure (SMILES)	Potency
CCN(Cc1cnn(C)c1)C(=O)c1ccc(OC2CCN(S(=O)(=O)N(C)C)CC2)cc1	inconclusive: 0.562 µM [inhibitor, partial curve, poor fit]
O=C(CSc1ccc(Cl)cc1)Nc1cccc(-c2nc3ncccc3o2)c1	inconclusive: 35.5 µM [inhibitor, single point]
CSc1ccc(S(=O)(=O)Nc2ccc(F)cc2)cc1	inconclusive: 35.5 µM [inhibitor, single point]
COc1cccc(C(=O)NC(=S)Nc2ccc3[nH]c(=O)[nH]c3c2)c1	inactive
C/C(Cc1ccccc1)=N\NC(=O)CNC(=O)c1ccc(F)cc1	inconclusive: 4.47 µM [activator, partial curve, poor fit]
Cc1ccc(C2=NN(C(=O)CN3CCN(C4CCS(=O)(=O)C4)CC3)C(c3ccco3)C2)cc1 (configuration not stated)	inconclusive: 10 µM [activator, partial curve]
Cc1cc(C)cc(NC(=O)c2ccc(CSc3nnnn3C)cc2)c1	inconclusive: 35.5 µM [inhibitor, single point]
CCOc1ccc(NC(=O)CCS(=O)(=O)c2cccc3nsnc23)cc1	inconclusive: 29.1 µM [activator, single point]
C/C(=N/NC(=O)c1ccccn1)c1ccncc1	inconclusive: 1.58 µM [activator, partial curve, poor fit]
Cn1c(CN2CCCC(C(=O)c3ccc4c(c3)OCO4)C2)nc2ccccc21 (configuration not stated)	inconclusive: 15.8 µM [inhibitor, single point]
CCC(C)NC(=O)c1c(N)n(/N=C/c2cccnc2)c2nc3ccccc3nc12 (configuration not stated)	active: 25.9 µM
COc1ccc(OC)c(NS(=O)(=O)c2ccc(SC)cc2)c1	inconclusive: 6.31 µM [inhibitor, full curve]
Cc1ccc(-n2nc3ccc(NC(=O)c4cccc([N+](=O)[O-])c4C)cc3n2)cc1	inconclusive: 0.891 µM [inhibitor, partial curve, poor fit]
Nc1nc(SCc2ccc(F)cc2)ns1	inactive
COc1cccc(-c2cc(C(F)(F)F)nc(N3CCOCC3)n2)c1	inconclusive: 16.4 µM [inhibitor, partial curve, poor fit]
Cc1ccc(NC(=O)CCCN2C(=O)COc3ccc(C)cc32)c(Cl)c1	inactive
C=CCOc1cccc(CNCc2cccnc2)c1	inactive
c1ccc(N2CCN(c3ncnc4c3oc3ccccc34)CC2)cc1	inconclusive: 35.5 µM [inhibitor, single point]
CCOC(=O)CC(=O)CSc1nc(-c2ccccc2)cc(-c2ccc(Cl)cc2)c1C#N	inconclusive: 29.1 µM [inhibitor, single point]
O=C(Nc1ccc2c(c1)CCC2)c1ccccc1F	inactive
COc1ccc(Br)cc1CN(C)CC(=O)Nc1cccc(S(N)(=O)=O)c1	inconclusive: 6.31 µM [activator, single point]
Cc1ccc(CNC(=S)Nc2ccc(C)c([N+](=O)[O-])c2)cc1	inactive
COc1ccc(OC)c(-c2csc(NC(=O)CSc3ccccc3)n2)c1	inconclusive: 35.5 µM [inhibitor, single point]

Structure (SMILES)	Potency
Cc1ccc(/C=C2\Oc3c(ccc(O)c3CN3CCN(CCO)CC3)C2=O)cc1	inconclusive: 0.562 µM [activator, full curve, poor fit]
NC(=O)C1CCN(C2=C(NS(=O)(=O)c3ccccc3)C(=O)c3ccccc3C2=O)CC1	inconclusive: 11.2 µM [inhibitor, partial curve, poor fit]
CCOc1ccc(Br)cc1S(=O)(=O)Nc1ccc(C(=O)OC(C)C(=O)N(C)c2ccccc2)cc1 (configuration not stated)	inconclusive: 35.5 µM [inhibitor, single point]
COc1ccc(S(=O)(=O)N2CCCCCC2)cc1N(C)S(=O)(=O)c1ccc(Cl)cc1	inconclusive: 29.1 µM [inhibitor, single point]
CCN1CCN(c2ccc(NC(=O)c3cccc(S(=O)(=O)N4CCCC4)c3)cc2)CC1	inactive
Cc1ccccc1-c1noc(-c2ccc(NC3CCCC3)c([N+](=O)[O-])c2)n1	inactive
COc1cccc(-n2c(=O)c3c4c(sc3n(Cc3ccccc3C#N)c2=O)CCCC4)c1	inactive
Cc1ccc(S(=O)(=O)N(C)c2ccc(OCC(=O)Nc3nc4ccccc4s3)cc2)cc1	active: 14.6 µM
O=C(NCc1ccccn1)C1CCN(Cc2cccc(OCc3ccccc3)c2)CC1	inconclusive: 1.64 µM [inhibitor, partial curve, poor fit]
COc1ccc(/C(O)=C2/C(=O)C(=O)N(CCN3CCOCC3)C2c2ccccn2)cc1 (configuration not stated)	inactive
O=C(CCOc1ccccc1)Nc1ccccc1	inconclusive: 20 µM [activator, partial curve, poor fit]
O=C(NC(NCc1ccccc1)C(Cl)(Cl)Cl)c1cccnc1 (configuration not stated)	inconclusive: 6.51 µM [inhibitor, single point]
O=C(COC(=O)C1CC2CCCC(C1)C2=O)Nc1ccccc1 (configuration not stated)	inconclusive: 0.562 µM [inhibitor, full curve, poor fit]
COC(=O)N1CCc2c(sc(NC(=O)C3=COCCO3)c2C#N)C1	inconclusive: 3.98 µM [inhibitor, single point]
COc1ccc(C(=O)CC2(O)C(=O)N(CCc3ccccc3)c3ccc(Br)cc32)cc1OC (configuration not stated)	inconclusive: 20 µM [inhibitor, partial curve, poor fit]
CC(=O)Nc1ccc(S(=O)(=O)NC2=C(N3CCN(c4ccc(F)cc4)CC3)C(=O)c3ccccc3C2=O)cc1	inconclusive: 31.6 µM [inhibitor, single point]
COc1ccc(C)cc1NC(=O)CCNC(=O)Cn1cnc2ccccc2c1=O	inactive
Nc1ccc2oc(-c3ccccc3Cl)nc2c1	inconclusive: 11.2 µM [inhibitor, partial curve, poor fit]
Cc1ccccc1-c1nc(CN2CCC(C(=O)NCCCN3CCCC(C)C3)CC2)c(C)o1 (configuration not stated)	inconclusive: 1.41 µM [inhibitor, full curve, poor fit]
O=C(N=C1SC2CS(=O)(=O)CC2N1c1ccccc1F)C1CCCCC1 (configuration not stated)	inconclusive: 1.12 µM [inhibitor, partial curve, poor fit]
COc1cc(CN(C(=O)c2ccc(C)cc2)c2ccccn2)cc(OC)c1OC	inconclusive: 25.1 µM [inhibitor, single point]

Rewritten comma-delimited: two of the compounds above
Structure (SMILES),Potency
COc1ccc(S(=O)(=O)N2CCCCCC2)cc1N(C)S(=O)(=O)c1ccc(Cl)cc1,"inconclusive: 29.1 µM [inhibitor, single point]"
CCN1CCN(c2ccc(NC(=O)c3cccc(S(=O)(=O)N4CCCC4)c3)cc2)CC1,inactive

2 consecutive entries already listed:
Structure (SMILES)	Potency
CC(=O)Nc1ccc(S(=O)(=O)NC2=C(N3CCN(c4ccc(F)cc4)CC3)C(=O)c3ccccc3C2=O)cc1	inconclusive: 31.6 µM [inhibitor, single point]
COc1ccc(C)cc1NC(=O)CCNC(=O)Cn1cnc2ccccc2c1=O	inactive
